According to paper PMC7817543:
No constants are given. Whether binding was seen depends on the method and setting. In cells and extracts the contact can be indirect. Some results given as binding are weak or reduced against the parent protein; the word gives no strength. For part of these data: Tags and fused reporters may be left off the sequences shown.

By UniProt entry, the sequences of proteins in these tests, tags left out.
UniProt P46937: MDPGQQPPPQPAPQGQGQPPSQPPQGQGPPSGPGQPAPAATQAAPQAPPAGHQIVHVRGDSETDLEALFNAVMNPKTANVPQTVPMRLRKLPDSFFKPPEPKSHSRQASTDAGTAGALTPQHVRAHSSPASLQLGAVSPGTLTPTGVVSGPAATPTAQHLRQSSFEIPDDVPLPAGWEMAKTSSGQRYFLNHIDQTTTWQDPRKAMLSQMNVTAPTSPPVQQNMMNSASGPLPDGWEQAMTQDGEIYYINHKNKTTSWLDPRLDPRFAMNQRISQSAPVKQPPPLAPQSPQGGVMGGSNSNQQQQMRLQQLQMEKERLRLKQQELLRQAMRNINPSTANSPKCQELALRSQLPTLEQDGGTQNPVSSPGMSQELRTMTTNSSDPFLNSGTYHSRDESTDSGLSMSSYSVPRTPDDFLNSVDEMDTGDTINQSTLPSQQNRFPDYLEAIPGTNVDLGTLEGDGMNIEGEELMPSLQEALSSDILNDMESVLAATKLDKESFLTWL

Assays:
[1] = target: T1, Flag-NUSAP1 (human) (UniProt Q9BXS6); assay: co-IP; anti-Flag beads on lysates of transfected BGC823 cells; 1000 μg total protein, 4°C, 4 h; Western blot
T1 sequence: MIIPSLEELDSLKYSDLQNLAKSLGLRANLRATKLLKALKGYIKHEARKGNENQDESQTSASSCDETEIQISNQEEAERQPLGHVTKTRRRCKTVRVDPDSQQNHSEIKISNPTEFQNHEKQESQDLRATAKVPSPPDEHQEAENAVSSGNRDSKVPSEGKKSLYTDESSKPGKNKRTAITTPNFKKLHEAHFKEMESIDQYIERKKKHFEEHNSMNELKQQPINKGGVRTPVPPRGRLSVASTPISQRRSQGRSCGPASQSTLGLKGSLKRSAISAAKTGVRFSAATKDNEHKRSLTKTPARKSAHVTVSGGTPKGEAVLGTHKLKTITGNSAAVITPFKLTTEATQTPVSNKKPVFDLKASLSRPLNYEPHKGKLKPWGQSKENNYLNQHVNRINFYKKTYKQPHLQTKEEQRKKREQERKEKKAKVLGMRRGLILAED

[2] = target: Yes-associated protein (YAP1), endogenous (human (endogenous in BGC823)) (UniProt P46937); assay: co-IP; BGC823 cell lysates immunoprecipitated with anti-YAP1 or control IgG; Western blot with anti-NUSAP1 and anti-YAP1; endogenous proteins
[3] = target: ectopic YAP1 (UniProt P46937); assay: co-IP; anti-HA beads on lysates of transfected SGC7901 cells; 1000 μg total protein, 4°C, 4 h; Western blot

With “ectopic YAP1 (from UniProt P46937 1-504)” the binding [1] was “binds”.

B1: nucleolar spindle-associated protein 1 (NUSAP1), endogenous (protein, UniProt Q9BXS6 1-441)
chain: MIIPSLEELDSLKYSDLQNLAKSLGLRANLRATKLLKALKGYIKHEARKGNENQDESQTSASSCDETEIQISNQEEAERQPLGHVTKTRRRCKTVRVDPDSQQNHSEIKISNPTEFQNHEKQESQDLRATAKVPSPPDEHQEAENAVSSGNRDSKVPSEGKKSLYTDESSKPGKNKRTAITTPNFKKLHEAHFKEMESIDQYIERKKKHFEEHNSMNELKQQPINKGGVRTPVPPRGRLSVASTPISQRRSQGRSCGPASQSTLGLKGSLKRSAISAAKTGVRFSAATKDNEHKRSLTKTPARKSAHVTVSGGTPKGEAVLGTHKLKTITGNSAAVITPFKLTTEATQTPVSNKKPVFDLKASLSRPLNYEPHKGKLKPWGQSKENNYLNQHVNRINFYKKTYKQPHLQTKEEQRKKREQERKEKKAKVLGMRRGLILAED
With B1 the binding [2] was “binds”.

B2: Flag-NUSAP1 (protein, UniProt Q9BXS6 1-441)
chain: MIIPSLEELDSLKYSDLQNLAKSLGLRANLRATKLLKALKGYIKHEARKGNENQDESQTSASSCDETEIQISNQEEAERQPLGHVTKTRRRCKTVRVDPDSQQNHSEIKISNPTEFQNHEKQESQDLRATAKVPSPPDEHQEAENAVSSGNRDSKVPSEGKKSLYTDESSKPGKNKRTAITTPNFKKLHEAHFKEMESIDQYIERKKKHFEEHNSMNELKQQPINKGGVRTPVPPRGRLSVASTPISQRRSQGRSCGPASQSTLGLKGSLKRSAISAAKTGVRFSAATKDNEHKRSLTKTPARKSAHVTVSGGTPKGEAVLGTHKLKTITGNSAAVITPFKLTTEATQTPVSNKKPVFDLKASLSRPLNYEPHKGKLKPWGQSKENNYLNQHVNRINFYKKTYKQPHLQTKEEQRKKREQERKEKKAKVLGMRRGLILAED
B2 was tested, and the binding [3] was “binds”.
